{"source": "patent US9227995B2", "about": "(DRUG DISCOVERY LABORATORY AS, priority 2010, dated 2016)", "assay": "general procedure: solution-phase peptide synthesis; EDC hydrochloride/HOBt hydrate; EDC hydrochloride/HOAt", "key": {"[1]": {"details": "coupling step, trifluoroacetate"}, "[2]": {"details": "late stage modification step, trifluoroacetate"}}, "data": [{"substance": "Methyl 2-((5S,14S)-5-(tert-butoxycarbonylamino)-8,8,11,11-tetramethyl-6,9,12-trioxo-16-oxa-1,7,10,13,19,20-hexaazabicyclo[16.2.1]henicosa-18 (21),19-dienecarboxamido)-2-methylpropanoate 20", "values": [{"measurement": "cyclisation yield", "setting": "cyclisation step, trifluoroacetate", "value": 83, "unit": "%"}]}, {"substance": "Methyl 2-methyl-2-((5S,14S)-8,8,11,11-tetramethyl-5-(2,2,6,6,9,9,12,12-octamethyl-4,7,10-trioxo-3-oxa-5,8,11-triazamidecanamido)-6,9,12-trioxo-16-oxa-1,7,10,13,19,20-hexaazabicyclo[16.2.1]henicosa-18 (21),19-dienecarboxamido)propanoate 23", "values": [{"measurement": "step yield", "setting": "coupling step, over two steps (deprotection and coupling) per paragraph 95, trifluoroacetate", "value": 73, "unit": "%"}]}, {"substance": "N-Tert-Butoxycarbonyl α,α-Dimethylglycyl α,α-Dimethylglycyl O-Propynyl-L-Seryl α,α-Dimethylglycine Methyl Ester 16", "values": [{"measurement": "step yield", "setting": "[1]", "value": 77, "unit": "%"}]}, {"substance": "N-tert-butoxycarbonyl α,α-dimethylglycyl α,α-dimethylglycyl α,α-dimethylglycyl ε-azido-L-norvalyl α,α-dimethylglycyl α,α-dimethylglycyl O-propynyl-L-seryl α,α-dimethylglycyl methyl ester 21", "values": [{"measurement": "step yield", "setting": "[1]", "value": 43, "unit": "%"}]}, {"substance": "N^α-Tert-Butoxycarbonyl ε-Azido-L-Norvalyl α,α-Dimethylglycyl α,α-Dimethylglycyl O-Propynyl-L-Seryl α,α-Dimethylglycine Methyl Ester 18", "values": [{"measurement": "step yield", "setting": "coupling step, trifluoroacetate, run 1", "value": 72, "unit": "%"}, {"measurement": "step yield", "setting": "coupling step, trifluoroacetate, run 2", "value": 19, "unit": "%"}]}, {"substance": "N^α-Tert-Butoxycarbonyl-N^ε-Azido-L-Norvalyl L-Valyl L-Valyl O-Propynyl L-Seryl Glycine Methyl Ester 34", "values": [{"measurement": "step yield", "setting": "[1]", "value": 69, "unit": "%"}]}, {"substance": "α,α-Dimethylglycyl α,α-Dimethylglycyl O-Propynyl-L-Seryl α,α-Dimethylglycine Methyl Ester Trifluoroacetate 17", "values": [{"measurement": "step yield", "setting": "[2]", "value": 100, "unit": "%"}]}, {"substance": "ε-Azido-L-Norvalyl α,α-Dimethylglycyl α,α-Dimethylglycyl O-Propynyl-L-Seryl α,α-Dimethylglycine Methyl Ester Trifluoroacetate 19", "values": [{"measurement": "step yield", "setting": "[2]", "value": 94, "unit": "%"}]}]}
